# In ChEMBL document CHEMBL4316593 (Eur J Med Chem, 2019):
# This continues a long series; more values of the same kind are listed elsewhere.
# Columns and labels:
# Assay type in all cases: cell-based
# Details in all cases: U-87MG ATCC
# [1] = Inhibition of RTK/PI3K/AKT/mTOR signaling in human U87 cells assessed as down regulation of DNAH3 gene expression at cytotoxic IC50 measured after 48 hrs relative to control
# [2] = Inhibition of RTK/PI3K/AKT/mTOR signaling in human U87 cells assessed as down regulation of CIDECP gene expression at cytotoxic IC50 measured after 48 hrs relative to control
# [3] = Inhibition of RTK/PI3K/AKT/mTOR signaling in human U87 cells assessed as down regulation of GINS4 gene expression at cytotoxic IC50 measured after 48 hrs relative to control
# [4] = Inhibition of RTK/PI3K/AKT/mTOR signaling in human U87 cells assessed as down regulation of TAF3 gene expression at cytotoxic IC50 measured after 48 hrs relative to control
# [5] = Inhibition of RTK/PI3K/AKT/mTOR signaling in human U87 cells assessed as down regulation of TRIM68 gene expression at cytotoxic IC50 measured after 48 hrs relative to control
# [6] = Inhibition of RTK/PI3K/AKT/mTOR signaling in human U87 cells assessed as down regulation of PGM2L1 gene expression at cytotoxic IC50 measured after 48 hrs relative to control
# [7] = Inhibition of RTK/PI3K/AKT/mTOR signaling in human U87 cells assessed as down regulation of STX3 gene expression at cytotoxic IC50 measured after 48 hrs relative to control
# [8] = Inhibition of RTK/PI3K/AKT/mTOR signaling in human U87 cells assessed as down regulation of PLEKHH1 gene expression at cytotoxic IC50 measured after 48 hrs relative to control
# [9] = Inhibition of RTK/PI3K/AKT/mTOR signaling in human U87 cells assessed as down regulation of DYNLL2 gene expression at cytotoxic IC50 measured after 48 hrs relative to control
# [10] = Inhibition of RTK/PI3K/AKT/mTOR signaling in human U87 cells assessed as down regulation of ZER1 gene expression at cytotoxic IC50 measured after 48 hrs relative to control
# [11] = Inhibition of RTK/PI3K/AKT/mTOR signaling in human U87 cells assessed as down regulation of CLTB gene expression at cytotoxic IC50 measured after 48 hrs relative to control
# [12] = Inhibition of RTK/PI3K/AKT/mTOR signaling in human U87 cells assessed as down regulation of TTC1 gene expression at cytotoxic IC50 measured after 48 hrs relative to control
# [13] = Inhibition of RTK/PI3K/AKT/mTOR signaling in human U87 cells assessed as down regulation of NBR1 gene expression at cytotoxic IC50 measured after 48 hrs relative to control
# [14] = Inhibition of RTK/PI3K/AKT/mTOR signaling in human U87 cells assessed as down regulation of UPF1 gene expression at cytotoxic IC50 measured after 48 hrs relative to control
# [15] = Inhibition of RTK/PI3K/AKT/mTOR signaling in human U87 cells assessed as down regulation of DNMT1 gene expression at cytotoxic IC50 measured after 48 hrs relative to control
# [16] = Inhibition of RTK/PI3K/AKT/mTOR signaling in human U87 cells assessed as up regulation of SLC22A31 gene expression at cytotoxic IC50 measured after 48 hrs relative to control
# [17] = Inhibition of RTK/PI3K/AKT/mTOR signaling in human U87 cells assessed as up regulation of KLK7 gene expression at cytotoxic IC50 measured after 48 hrs relative to control
# [18] = Inhibition of RTK/PI3K/AKT/mTOR signaling in human U87 cells assessed as up regulation of SMTNL2 gene expression at cytotoxic IC50 measured after 48 hrs relative to control
# [19] = Inhibition of RTK/PI3K/AKT/mTOR signaling in human U87 cells assessed as up regulation of SLCO4A1 gene expression at cytotoxic IC50 measured after 48 hrs relative to control
# [20] = Inhibition of RTK/PI3K/AKT/mTOR signaling in human U87 cells assessed as up regulation of FHAD1 gene expression at cytotoxic IC50 measured after 48 hrs relative to control
# [21] = Inhibition of RTK/PI3K/AKT/mTOR signaling in human U87 cells assessed as up regulation of dihydropyrimidinase like 2 gene expression at cytotoxic IC50 measured after 48 hrs relative to control
# [22] = Inhibition of RTK/PI3K/AKT/mTOR signaling in human U87 cells assessed as up regulation of homeobox B9 gene expression at cytotoxic IC50 measured after 48 hrs relative to control
# [23] = Inhibition of RTK/PI3K/AKT/mTOR signaling in human U87 cells assessed as up regulation of phosphatidylinositol-4,5-bisphosphate 3-kinase catalytic subunit delta gene expression at cytotoxic IC50 measured after 48 hrs relative to control
# [24] = Inhibition of RTK/PI3K/AKT/mTOR signaling in human U87 cells assessed as up regulation of Ras association domain family member 3 gene expression at cytotoxic IC50 measured after 48 hrs relative to control
# [25] = Inhibition of RTK/PI3K/AKT/mTOR signaling in human U87 cells assessed as up regulation of inositol polyphosphate-5-phosphatase J gene expression at cytotoxic IC50 measured after 48 hrs relative to control
# [26] = Inhibition of RTK/PI3K/AKT/mTOR signaling in human U87 cells assessed as up regulation of family with sequence similarity 129 member B gene expression at cytotoxic IC50 measured after 48 hrs relative to control
# [27] = Inhibition of RTK/PI3K/AKT/mTOR signaling in human U87 cells assessed as up regulation of sperm specific antigen 2 gene expression at cytotoxic IC50 measured after 48 hrs relative to control
# [28] = Inhibition of RTK/PI3K/AKT/mTOR signaling in human U87 cells assessed as up regulation of zinc finger DHHC-type containing 20 gene expression at cytotoxic IC50 measured after 48 hrs relative to control
# [29] = Inhibition of RTK/PI3K/AKT/mTOR signaling in human U87 cells assessed as up regulation of Kruppel like factor 16 gene expression at cytotoxic IC50 measured after 48 hrs relative to control
# [30] = Inhibition of RTK/PI3K/AKT/mTOR signaling in human U87 cells assessed as up regulation of MARCKS gene expression at cytotoxic IC50 measured after 48 hrs relative to control
# [31] = Inhibition of RTK/PI3K/AKT/mTOR signaling in human U87 cells assessed as up regulation of UFM1 gene expression at cytotoxic IC50 measured after 48 hrs relative to control
# [32] = Inhibition of RTK/PI3K/AKT/mTOR signaling in human U87 cells assessed as up regulation of TM9SF4 gene expression at cytotoxic IC50 measured after 48 hrs relative to control
structure (smiles),measurement,setting,value
CC(=O)C(=NNc1ccccc1C#N)C(C)=O,log2FC,[1],-4.59
same,log2FC,[2],-2.04
same,log2FC,[3],-1.21
same,log2FC,[4],-1.16
same,log2FC,[5],-1.03
same,log2FC,[6],-0.998
same,log2FC,[7],-0.915
same,log2FC,[8],-0.843
same,log2FC,[9],-0.762
same,log2FC,[10],-0.762
same,log2FC,[11],-0.686
same,log2FC,[12],-0.542
same,log2FC,[13],-0.465
same,log2FC,[14],-0.461
same,log2FC,[15],-0.454
same,log2FC,[16],2.98
same,log2FC,[17],2.76
same,log2FC,[18],2.19
same,log2FC,[19],2.13
same,log2FC,[20],2.01
same,log2FC,[21],1.25
same,log2FC,[22],1.19
same,log2FC,[23],1.13
same,log2FC,[24],1.13
same,log2FC,[25],1
same,log2FC,[26],0.944
same,log2FC,[27],0.854
same,log2FC,[28],0.811
same,log2FC,[29],0.67
same,log2FC,[30],0.527
same,log2FC,[31],0.523
same,log2FC,[32],0.451
